Results from article doi:10.64898/2025.12.22.696046.
Results are given in words; binding and its absence hold for the method and conditions named. In cells and extracts the contact can be indirect. Some results given as binding are weak or reduced against the parent protein; the word gives no strength. Sequences can lack the tags named with a protein. Blank lines part the entries; values can stand above or below the molecule they belong to.

Amino acid sequences for entries named in this document (tags omitted). Residues count along the entry.
UniProt P31554, residues 25-784: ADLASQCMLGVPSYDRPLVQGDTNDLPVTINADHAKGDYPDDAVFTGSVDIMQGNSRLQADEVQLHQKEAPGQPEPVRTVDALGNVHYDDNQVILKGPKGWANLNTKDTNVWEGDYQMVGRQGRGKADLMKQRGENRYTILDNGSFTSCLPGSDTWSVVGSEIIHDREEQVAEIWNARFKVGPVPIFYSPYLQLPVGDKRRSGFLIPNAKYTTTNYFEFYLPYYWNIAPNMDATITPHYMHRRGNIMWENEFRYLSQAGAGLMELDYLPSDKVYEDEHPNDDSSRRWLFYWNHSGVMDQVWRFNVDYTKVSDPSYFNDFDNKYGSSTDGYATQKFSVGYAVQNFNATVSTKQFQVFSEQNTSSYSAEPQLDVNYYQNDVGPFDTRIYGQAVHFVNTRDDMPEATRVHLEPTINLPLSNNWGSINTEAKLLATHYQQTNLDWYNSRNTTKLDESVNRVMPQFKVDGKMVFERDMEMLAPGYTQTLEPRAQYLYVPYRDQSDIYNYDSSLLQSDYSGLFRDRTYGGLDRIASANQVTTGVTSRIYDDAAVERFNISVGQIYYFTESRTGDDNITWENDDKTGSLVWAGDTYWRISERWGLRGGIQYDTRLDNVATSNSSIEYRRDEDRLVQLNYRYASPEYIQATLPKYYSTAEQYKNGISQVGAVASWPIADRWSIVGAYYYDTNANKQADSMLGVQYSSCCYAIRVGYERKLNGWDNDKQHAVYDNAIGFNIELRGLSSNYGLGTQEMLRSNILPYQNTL

Target: T1, His×6-tagged YfgH (E. coli) (UniProt P65290)
T1 sequence: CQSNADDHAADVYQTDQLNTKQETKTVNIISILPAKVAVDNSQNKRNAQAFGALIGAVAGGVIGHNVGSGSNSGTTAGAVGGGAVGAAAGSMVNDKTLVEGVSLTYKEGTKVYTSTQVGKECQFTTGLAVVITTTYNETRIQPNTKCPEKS
Assay: pull-down

Molecule: LptD (from UniProt P31554 25-784)
- binding: binds

B1: OmpA (protein, UniProt P0A910 22-346)
chain: APKDNTWYTGAKLGWSQYHDTGFINNNGPTHENQLGAGAFGGYQVNPYVGFEMGYDWLGRMPYKGSVENGAYKAQGVQLTAKLGYPITDDLDIYTRLGGMVWRADTKSNVYGKNHDTGVSPVFAGGVEYAITPEIATRLEYQWTNNIGDAHTIGTRPDNGMLSLGVSYRFGQGEAAPVVAPAPAPAPEVQTKHFTLKSDVLFNFNKATLKPEGQAALDQLYSQLSNLDPKDGSVVVLGYTDRIGSDAYNQGLSERRAQSVVDYLISKGIPADKISARGMGESNPVTGNTCDNVKQRAALIDCLAPDRRVEIEVKGIKDVVTQPQA
- binding: binds

The next lines start with the values.

- binding: binds
B2: OmpC (protein, UniProt P06996 22-367)
chain: AEVYNKDGNKLDLYGKVDGLHYFSDNKDVDGDQTYMRLGFKGETQVTDQLTGYGQWEYQIQGNSAENENNSWTRVAFAGLKFQDVGSFDYGRNYGVVYDVTSWTDVLPEFGGDTYGSDNFMQQRGNGFATYRNTDFFGLVDGLNFAVQYQGKNGNPSGEGFTSGVTNNGRDALRQNGDGVGGSITYDYEGFGIGGAISSSKRTDAQNTAAYIGNGDRAETYTGGLKYDANNIYLAAQYTQTYNATRVGSLGWANKAQNFEAVAQYQFDFGLRPSLAYLQSKGKNLGRGYDDEDILKYVDVGATYYFNKNMSTYVDYKINLLDDNQFTRDAGINTDNIVALGLVYQF

- binding: binds
B3: OmpF (protein, UniProt P02931 23-362)
chain: AEIYNKDGNKVDLYGKAVGLHYFSKGNGENSYGGNGDMTYARLGFKGETQINSDLTGYGQWEYNFQGNNSEGADAQTGNKTRLAFAGLKYADVGSFDYGRNYGVVYDALGYTDMLPEFGGDTAYSDDFFVGRVGGVATYRNSNFFGLVDGLNFAVQYLGKNERDTARRSNGDGVGGSISYEYEGFGIVGAYGAADRTNLQEAQPLGNGKKAEQWATGLKYDANNIYLAANYGETRNATPITNKFTNTSGFANKTQDVLLVAQYQFDFGLRPSIAYTKSKAKDVEGIGDVDLVNYFEVGATYYFNKNMSTYVDYIINQIDSDNKLGVGSDDTVAVGIVYQF
